Measured values as given in PMC3344845, “Structure of Bradavidin – C-Terminal Residues Act as Intrinsic Ligands” (PLoS ONE, 2012).

Target: rhizavidin (Rhizobium etli)
Assay: ITC; core-bradavidin, avidin, streptavidin or rhizavidin in the cell, Brad-tag in the syringe, 40°C, 50 mM sodium phosphate pH 7.0, 100 mM NaCl; n is the stoichiometry per subunit; both purified

Q: Which binding does the source give for SEKLSNTK [Brad-tag (synthetic peptide SEKLSNTK)] here?
A: no binding

No constants are given. Whether binding was seen depends on the method and setting. Tags and fused reporters may be left off the sequences shown.
